Assay results: patent publication US4829051A, “N-substituted derivatives of 1-desaminovasopressin” (Vega Laboratories, Inc., priority 1984, dated 1989)
Not every detail of the peptide structures is certain; ends, links or a residue may be inferred. Where a SMILES comes first, the peptide text is derived from it. Bridges are numbered along the chain shown (N, C = ends).

Legend:
male Sprague-Dawley rats = test: Pressor assay in rats, calibrated against LVP or dLVP; format: in vivo, rat; conditions: half-lives compared with the standard at equi-peak-potent levels
[1] = doses up to 100 microg/kg day; about 70% in untreated cases; cited from earlier work

NCCCC[C@H](NC(=O)[C@@H]1CCCN1C(=O)[C@@H]1CSSC[C@H](NC(=O)CNC(=O)CNC(=O)CN)C(=O)N[C@@H](Cc2ccc(O)cc2)C(=O)N[C@@H](Cc2ccccc2)C(=O)N[C@@H](CCC(N)=O)C(=O)N[C@@H](CC(N)=O)C(=O)N1)C(=O)NCC(N)=O [tGLVP, N^α -(glycyl-glycyl-glycyl)-8-lysine-vasopressin] (H-GGGCYFQNCPKG-NH2; disulfide 4-9)
Ratio of Half-Life of Compound to Standard (pressor response) (male Sprague-Dawley rats): 11.5 | Mortality from a bleeding episode [1]: 13%
